Earlier results, collected in patent US20060106545A1, “Methods of clustering proteins” (Jubilant Biosys Ltd., priority 2004, published 2006).
Some results were stated once for a whole list of compounds, not compound by compound.

Tested on: SAPK2
Conditions: kinase SAPK2

Structure (SMILES): O=C1Cc2c([nH]c3ccc(Br)cc23)-c2ccccc2N1 [Kenpaullone]
- % of Expression Bain et al.: >80%
